The other results are listed elsewhere or left out.

Protein sequences, listed by entry. Tags and fused reporters are not part of them. Lines headed by an entry give the natural chain unless they say otherwise; changes in a name come on top.
UniProt Q16762: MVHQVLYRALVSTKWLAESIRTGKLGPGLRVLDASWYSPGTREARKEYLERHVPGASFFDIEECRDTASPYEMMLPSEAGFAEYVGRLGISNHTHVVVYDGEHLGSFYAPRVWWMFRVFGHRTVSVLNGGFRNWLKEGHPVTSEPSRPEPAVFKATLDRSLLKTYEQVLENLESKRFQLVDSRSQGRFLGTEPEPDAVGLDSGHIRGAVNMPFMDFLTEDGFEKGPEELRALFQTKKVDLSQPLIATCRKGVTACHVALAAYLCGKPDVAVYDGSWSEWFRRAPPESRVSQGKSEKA
UniProt Q5R3I4: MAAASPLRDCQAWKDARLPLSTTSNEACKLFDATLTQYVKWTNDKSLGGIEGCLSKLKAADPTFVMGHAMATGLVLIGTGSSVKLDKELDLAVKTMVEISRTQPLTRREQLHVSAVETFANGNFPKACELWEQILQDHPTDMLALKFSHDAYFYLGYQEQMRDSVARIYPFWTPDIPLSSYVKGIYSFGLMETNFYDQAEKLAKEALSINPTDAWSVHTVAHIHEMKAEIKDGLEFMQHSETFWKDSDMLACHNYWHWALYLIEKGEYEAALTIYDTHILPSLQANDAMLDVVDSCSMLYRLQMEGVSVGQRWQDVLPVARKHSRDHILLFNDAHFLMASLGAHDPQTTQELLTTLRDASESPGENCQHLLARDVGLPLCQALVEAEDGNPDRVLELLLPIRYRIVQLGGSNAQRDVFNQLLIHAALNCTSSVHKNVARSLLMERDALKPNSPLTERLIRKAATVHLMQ
UniProt Q7Z392: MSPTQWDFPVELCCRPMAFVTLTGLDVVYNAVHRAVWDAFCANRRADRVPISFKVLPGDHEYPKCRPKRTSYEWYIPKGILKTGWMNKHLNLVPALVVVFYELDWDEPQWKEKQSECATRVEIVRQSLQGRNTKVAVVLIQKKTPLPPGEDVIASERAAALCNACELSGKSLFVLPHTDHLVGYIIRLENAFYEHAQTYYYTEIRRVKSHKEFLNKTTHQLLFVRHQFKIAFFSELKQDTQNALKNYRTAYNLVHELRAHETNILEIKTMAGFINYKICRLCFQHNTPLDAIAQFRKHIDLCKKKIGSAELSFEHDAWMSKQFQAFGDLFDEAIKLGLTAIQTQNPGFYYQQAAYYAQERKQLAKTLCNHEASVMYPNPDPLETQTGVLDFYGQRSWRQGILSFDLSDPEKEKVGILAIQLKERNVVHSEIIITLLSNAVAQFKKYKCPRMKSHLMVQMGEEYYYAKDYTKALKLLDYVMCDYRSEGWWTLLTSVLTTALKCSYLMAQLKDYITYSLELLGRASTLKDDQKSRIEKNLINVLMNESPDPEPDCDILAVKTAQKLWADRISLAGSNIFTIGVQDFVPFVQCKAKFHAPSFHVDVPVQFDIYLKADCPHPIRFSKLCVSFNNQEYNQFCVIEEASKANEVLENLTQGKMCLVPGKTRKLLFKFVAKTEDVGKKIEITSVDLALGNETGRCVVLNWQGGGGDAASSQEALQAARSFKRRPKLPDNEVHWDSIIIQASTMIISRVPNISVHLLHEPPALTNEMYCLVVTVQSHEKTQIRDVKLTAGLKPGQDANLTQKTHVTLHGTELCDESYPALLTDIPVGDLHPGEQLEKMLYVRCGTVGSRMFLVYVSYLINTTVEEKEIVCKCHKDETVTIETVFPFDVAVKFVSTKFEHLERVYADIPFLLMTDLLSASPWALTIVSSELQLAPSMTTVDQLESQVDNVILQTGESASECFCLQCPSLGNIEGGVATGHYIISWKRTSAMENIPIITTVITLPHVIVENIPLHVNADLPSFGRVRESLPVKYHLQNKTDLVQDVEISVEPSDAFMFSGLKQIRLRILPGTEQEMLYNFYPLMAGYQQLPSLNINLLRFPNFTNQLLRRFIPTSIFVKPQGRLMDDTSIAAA
UniProt Q969E8: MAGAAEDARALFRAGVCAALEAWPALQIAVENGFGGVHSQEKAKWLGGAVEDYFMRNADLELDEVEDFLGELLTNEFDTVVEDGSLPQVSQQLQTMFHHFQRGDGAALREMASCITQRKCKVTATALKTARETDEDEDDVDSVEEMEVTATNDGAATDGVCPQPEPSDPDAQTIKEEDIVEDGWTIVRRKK
UniProt Q8NG06: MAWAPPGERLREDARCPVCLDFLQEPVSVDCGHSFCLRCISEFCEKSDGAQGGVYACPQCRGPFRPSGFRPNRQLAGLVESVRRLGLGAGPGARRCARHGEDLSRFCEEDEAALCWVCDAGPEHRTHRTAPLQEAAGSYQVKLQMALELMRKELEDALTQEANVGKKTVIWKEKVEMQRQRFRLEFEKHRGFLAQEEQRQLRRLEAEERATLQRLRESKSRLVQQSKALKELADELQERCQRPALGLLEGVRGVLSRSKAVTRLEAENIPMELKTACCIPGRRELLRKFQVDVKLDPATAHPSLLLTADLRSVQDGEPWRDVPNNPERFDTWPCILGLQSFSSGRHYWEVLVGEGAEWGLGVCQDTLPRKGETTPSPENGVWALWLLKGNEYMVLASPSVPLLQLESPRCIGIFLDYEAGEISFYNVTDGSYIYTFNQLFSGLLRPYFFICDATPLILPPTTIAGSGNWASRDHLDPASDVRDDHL
UniProt Q9BRZ2: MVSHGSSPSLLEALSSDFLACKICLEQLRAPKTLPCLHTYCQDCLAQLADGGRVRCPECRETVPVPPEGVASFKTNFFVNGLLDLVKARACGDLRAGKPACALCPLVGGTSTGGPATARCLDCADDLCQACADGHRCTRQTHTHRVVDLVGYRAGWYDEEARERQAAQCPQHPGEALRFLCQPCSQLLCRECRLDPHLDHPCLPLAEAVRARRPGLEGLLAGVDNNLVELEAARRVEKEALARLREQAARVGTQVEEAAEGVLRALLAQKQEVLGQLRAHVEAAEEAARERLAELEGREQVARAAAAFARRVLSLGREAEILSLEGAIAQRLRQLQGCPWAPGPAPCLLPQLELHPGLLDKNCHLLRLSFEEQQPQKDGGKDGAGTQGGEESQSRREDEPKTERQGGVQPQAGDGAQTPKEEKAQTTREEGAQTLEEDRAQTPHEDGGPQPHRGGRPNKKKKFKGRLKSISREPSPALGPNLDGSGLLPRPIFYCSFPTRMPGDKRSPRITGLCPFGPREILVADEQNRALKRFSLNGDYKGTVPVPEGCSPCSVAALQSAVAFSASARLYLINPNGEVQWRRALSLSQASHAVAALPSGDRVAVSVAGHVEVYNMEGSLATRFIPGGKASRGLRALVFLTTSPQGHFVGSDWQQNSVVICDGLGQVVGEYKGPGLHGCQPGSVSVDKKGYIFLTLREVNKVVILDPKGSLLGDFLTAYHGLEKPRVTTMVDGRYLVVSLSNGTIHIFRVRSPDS
UniProt O75157: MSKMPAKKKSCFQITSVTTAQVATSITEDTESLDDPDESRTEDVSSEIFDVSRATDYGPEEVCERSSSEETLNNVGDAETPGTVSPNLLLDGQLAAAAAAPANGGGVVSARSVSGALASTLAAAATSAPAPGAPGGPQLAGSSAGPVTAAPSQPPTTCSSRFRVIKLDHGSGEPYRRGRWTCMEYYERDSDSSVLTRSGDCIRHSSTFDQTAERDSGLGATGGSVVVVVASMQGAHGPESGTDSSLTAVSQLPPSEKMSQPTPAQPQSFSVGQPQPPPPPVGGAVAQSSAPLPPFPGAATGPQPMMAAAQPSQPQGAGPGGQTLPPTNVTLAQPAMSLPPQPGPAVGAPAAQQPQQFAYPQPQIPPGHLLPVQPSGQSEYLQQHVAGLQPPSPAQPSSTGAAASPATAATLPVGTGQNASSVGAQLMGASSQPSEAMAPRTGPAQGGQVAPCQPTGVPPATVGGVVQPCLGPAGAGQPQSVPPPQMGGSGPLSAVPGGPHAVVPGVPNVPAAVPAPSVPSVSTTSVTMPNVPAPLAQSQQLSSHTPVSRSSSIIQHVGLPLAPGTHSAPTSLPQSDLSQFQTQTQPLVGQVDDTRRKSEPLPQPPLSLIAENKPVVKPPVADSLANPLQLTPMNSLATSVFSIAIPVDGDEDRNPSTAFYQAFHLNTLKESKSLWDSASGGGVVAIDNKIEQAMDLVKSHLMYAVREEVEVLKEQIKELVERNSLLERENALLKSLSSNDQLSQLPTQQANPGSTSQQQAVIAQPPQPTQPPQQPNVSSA
UniProt Q86SZ2: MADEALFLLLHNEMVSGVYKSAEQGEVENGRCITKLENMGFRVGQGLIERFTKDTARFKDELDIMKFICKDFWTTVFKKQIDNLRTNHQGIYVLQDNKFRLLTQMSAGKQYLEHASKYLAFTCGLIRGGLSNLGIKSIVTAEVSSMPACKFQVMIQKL
UniProt Q6NXR4: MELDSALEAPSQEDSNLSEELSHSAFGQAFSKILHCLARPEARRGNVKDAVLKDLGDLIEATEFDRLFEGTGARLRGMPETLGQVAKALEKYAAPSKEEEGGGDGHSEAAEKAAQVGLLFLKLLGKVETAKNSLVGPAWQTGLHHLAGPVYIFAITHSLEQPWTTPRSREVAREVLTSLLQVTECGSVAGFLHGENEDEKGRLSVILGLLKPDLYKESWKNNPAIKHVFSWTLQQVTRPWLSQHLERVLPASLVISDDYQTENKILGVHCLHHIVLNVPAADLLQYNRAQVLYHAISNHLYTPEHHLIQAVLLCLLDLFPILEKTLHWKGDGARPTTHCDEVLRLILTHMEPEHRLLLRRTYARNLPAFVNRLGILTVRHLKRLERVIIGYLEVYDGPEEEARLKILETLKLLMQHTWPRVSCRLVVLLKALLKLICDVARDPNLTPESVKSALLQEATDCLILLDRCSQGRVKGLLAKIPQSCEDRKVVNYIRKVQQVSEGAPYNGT
UniProt Q96Q05, whole entry, looked up: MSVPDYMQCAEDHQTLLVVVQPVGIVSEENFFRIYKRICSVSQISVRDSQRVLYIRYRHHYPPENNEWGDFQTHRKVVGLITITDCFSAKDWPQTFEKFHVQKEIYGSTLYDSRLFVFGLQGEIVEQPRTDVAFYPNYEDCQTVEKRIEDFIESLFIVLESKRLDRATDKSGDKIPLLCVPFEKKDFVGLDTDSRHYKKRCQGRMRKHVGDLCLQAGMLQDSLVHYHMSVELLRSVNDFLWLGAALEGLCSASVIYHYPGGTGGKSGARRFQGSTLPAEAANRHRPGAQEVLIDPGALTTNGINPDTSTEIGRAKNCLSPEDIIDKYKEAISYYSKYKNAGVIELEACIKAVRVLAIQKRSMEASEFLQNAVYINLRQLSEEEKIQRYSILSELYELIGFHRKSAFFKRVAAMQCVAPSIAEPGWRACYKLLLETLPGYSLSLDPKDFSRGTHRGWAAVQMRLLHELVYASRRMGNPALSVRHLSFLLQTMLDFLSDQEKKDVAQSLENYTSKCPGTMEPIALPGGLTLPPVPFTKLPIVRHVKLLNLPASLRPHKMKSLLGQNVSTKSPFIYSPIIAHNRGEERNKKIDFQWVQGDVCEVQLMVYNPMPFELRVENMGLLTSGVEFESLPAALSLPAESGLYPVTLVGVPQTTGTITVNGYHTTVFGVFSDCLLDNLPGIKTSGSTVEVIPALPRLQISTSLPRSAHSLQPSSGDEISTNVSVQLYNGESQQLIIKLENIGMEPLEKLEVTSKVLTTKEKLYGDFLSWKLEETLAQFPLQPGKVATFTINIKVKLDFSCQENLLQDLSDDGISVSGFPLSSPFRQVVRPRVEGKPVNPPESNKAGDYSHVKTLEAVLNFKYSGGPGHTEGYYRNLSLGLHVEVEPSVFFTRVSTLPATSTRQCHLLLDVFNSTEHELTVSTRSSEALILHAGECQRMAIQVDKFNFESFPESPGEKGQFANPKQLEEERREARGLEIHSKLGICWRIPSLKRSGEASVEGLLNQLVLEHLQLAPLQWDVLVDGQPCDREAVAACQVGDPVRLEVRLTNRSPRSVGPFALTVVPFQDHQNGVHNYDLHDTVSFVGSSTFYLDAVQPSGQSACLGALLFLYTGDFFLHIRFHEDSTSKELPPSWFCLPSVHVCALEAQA
UniProt Q15642: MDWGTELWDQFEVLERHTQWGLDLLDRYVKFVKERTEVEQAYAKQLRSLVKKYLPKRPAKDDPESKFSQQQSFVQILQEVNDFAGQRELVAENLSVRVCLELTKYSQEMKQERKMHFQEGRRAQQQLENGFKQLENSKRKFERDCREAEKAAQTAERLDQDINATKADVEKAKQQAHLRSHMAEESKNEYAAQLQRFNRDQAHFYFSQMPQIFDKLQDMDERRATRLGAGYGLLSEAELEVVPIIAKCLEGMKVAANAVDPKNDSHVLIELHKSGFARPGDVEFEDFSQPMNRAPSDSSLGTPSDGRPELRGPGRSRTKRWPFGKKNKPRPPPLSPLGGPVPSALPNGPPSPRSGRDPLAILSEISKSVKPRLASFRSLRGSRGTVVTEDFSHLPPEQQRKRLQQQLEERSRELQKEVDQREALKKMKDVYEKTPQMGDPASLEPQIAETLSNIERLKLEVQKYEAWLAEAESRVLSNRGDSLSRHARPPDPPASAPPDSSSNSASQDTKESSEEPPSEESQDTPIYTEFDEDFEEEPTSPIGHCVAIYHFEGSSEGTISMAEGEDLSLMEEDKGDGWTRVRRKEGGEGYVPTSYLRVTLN

Compound in the experiment: NC1(c2ccc(-c3nc4ccn5c(=O)[nH]nc5c4cc3-c3ccccc3)cc2)CCC1
Briefly: log2 fold change, soluble protein after heating vs DMSO (PISA); higher = thermal stabilisation; K562 lysate, 10 uM; active = over 0.2 and 3.5 SD of the protein, either way, in both replicates (recomputed). The procedure, abridged:
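Values give the log-two fold change in thermal stability against solvent controls, from duplicates. Crude K562 extract at 1 mg/mL protein, made by dounce homogenisation in PBS pH 7.4 with 1 mM MgCl2, was treated with 10 μM compound for 30 min. After 3 min heating across 48°C-58°C, aliquots were pooled, adjusted to 0.5% NP-40 at 4°C and centrifuged at 21,000xg for 90 min. The supernatant was measured by TMTpro 16plex LC-MS/MS with channel sums equalised.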
As to TRIM32 (UniProt Q13049), the log2 fold change is inactive: -0.069. For TRIM28 (UniProt Q13263) the value was inactive: 0.003; for TST (UniProt Q16762), inactive: 0.022.

Take TRMT1L (UniProt Q7Z2T5): the log2 fold change was inactive: -0.018.

Take TRUB1 (UniProt Q8WWH5): the log2 fold change was inactive: 0. Under TTC37 (UniProt Q6PGP7) stands inactive: -0.087; under TRPT1 isoform 4 (UniProt Q86TN4), inactive: -0.239; under TTC38 (UniProt Q5R3I4), inactive: 0.029.

Turning to TSPYL1 (UniProt Q9H0U9), the log2 fold change was inactive: -0.034.

In the case of TRAPPC2 isoform 3 (UniProt P0DI81), the log2 fold change was inactive: -0.001.

As for TRAPPC11 (UniProt Q7Z392), the log2 fold change is inactive: -0.001. Regarding TSR2 (UniProt Q969E8), the log2 fold change is inactive: 0.006. For TRMT1 (UniProt Q9NXH9) the value was inactive: 0.027. Under TTLL12 (UniProt Q14166) stands inactive: -0.013; under TTC12 isoform 2 (UniProt Q9H892), inactive: -0.073; under TRIM58 (UniProt Q8NG06), inactive: 0.065. For the target TTC4 (UniProt O95801), the log2 fold change was inactive: -0.018. Under TRIM56 (UniProt Q9BRZ2) stands inactive: 0.007; under TRIP11 (UniProt Q15643), inactive: 0.001. For TRIM24 (UniProt O15164) the value was inactive: -0.011; for TRIAP1 (UniProt O43715), inactive: 0.088; for TSC22D2 (UniProt O75157), inactive: 0.049.

For the target TRMT5 (UniProt Q32P41), the log2 fold change was inactive: -0.047.

Take TRAPPC10 (UniProt P48553): the log2 fold change is inactive: -0.05.

As to TRIT1 (UniProt Q9H3H1), the log2 fold change was inactive: 0.034. Take TTC9C (UniProt Q8N5M4): the log2 fold change was inactive: 0.012. Turning to TRIP12 isoform 2 (UniProt Q14669), the log2 fold change was inactive: 0.003. Take TRAPPC6B (UniProt Q86SZ2): the log2 fold change was inactive: 0.003. Regarding TTI2 (UniProt Q6NXR4), the log2 fold change was inactive: -0.013. As for TSPYL2 (UniProt Q9H2G4), the log2 fold change is inactive: 0.

Turning to TRAPPC12 (UniProt Q8WVT3), the log2 fold change is inactive: 0.013. For TSNAX (UniProt Q99598) the value was inactive: 0.017. Under TRIM21 (UniProt P19474) stands inactive: 0.069. TRAPPC13 isoform 4 (UniProt A5PLN9): the log2 fold change is inactive: 0.025.

Regarding TRAPPC9 isoform 2 (UniProt Q96Q05), the log2 fold change was inactive: -0.073. With TRIP10 isoform 2 (UniProt Q15642), the log2 fold change is inactive: -0.178. Under TRNAU1AP (UniProt Q9NX07) stands inactive: -0.013; under TRMT112 (UniProt Q9UI30), inactive: 0.017.

The values above are taken from the supplement of paper PMC10849652.
